Laboratory results taken from publication PMC4022412.
Results are given in words; binding and its absence hold for the method and conditions named. In cells and extracts the contact can be indirect. Some entries that bind do so weakly or less than the wild type. For part of these data: Sequences can lack the tags named with a protein.

Sequences of proteins named here, by UniProt entry; tags and fusion partners are left off.
UniProt Q60857: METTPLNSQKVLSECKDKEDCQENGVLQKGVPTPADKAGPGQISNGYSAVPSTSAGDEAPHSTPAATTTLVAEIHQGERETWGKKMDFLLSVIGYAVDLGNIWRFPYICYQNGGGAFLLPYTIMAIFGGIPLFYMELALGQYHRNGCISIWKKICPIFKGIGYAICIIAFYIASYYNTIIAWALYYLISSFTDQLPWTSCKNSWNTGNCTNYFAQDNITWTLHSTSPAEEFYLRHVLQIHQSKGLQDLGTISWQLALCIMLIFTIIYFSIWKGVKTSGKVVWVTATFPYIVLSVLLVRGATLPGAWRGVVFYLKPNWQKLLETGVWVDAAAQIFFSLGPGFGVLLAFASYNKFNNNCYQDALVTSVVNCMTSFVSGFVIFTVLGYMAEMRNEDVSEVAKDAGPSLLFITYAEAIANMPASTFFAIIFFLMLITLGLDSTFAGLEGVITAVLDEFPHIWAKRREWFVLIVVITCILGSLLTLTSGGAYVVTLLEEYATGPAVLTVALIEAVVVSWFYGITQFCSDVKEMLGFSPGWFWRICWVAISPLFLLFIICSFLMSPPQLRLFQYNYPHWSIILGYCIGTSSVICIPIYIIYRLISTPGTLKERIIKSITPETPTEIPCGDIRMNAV
UniProt P46460: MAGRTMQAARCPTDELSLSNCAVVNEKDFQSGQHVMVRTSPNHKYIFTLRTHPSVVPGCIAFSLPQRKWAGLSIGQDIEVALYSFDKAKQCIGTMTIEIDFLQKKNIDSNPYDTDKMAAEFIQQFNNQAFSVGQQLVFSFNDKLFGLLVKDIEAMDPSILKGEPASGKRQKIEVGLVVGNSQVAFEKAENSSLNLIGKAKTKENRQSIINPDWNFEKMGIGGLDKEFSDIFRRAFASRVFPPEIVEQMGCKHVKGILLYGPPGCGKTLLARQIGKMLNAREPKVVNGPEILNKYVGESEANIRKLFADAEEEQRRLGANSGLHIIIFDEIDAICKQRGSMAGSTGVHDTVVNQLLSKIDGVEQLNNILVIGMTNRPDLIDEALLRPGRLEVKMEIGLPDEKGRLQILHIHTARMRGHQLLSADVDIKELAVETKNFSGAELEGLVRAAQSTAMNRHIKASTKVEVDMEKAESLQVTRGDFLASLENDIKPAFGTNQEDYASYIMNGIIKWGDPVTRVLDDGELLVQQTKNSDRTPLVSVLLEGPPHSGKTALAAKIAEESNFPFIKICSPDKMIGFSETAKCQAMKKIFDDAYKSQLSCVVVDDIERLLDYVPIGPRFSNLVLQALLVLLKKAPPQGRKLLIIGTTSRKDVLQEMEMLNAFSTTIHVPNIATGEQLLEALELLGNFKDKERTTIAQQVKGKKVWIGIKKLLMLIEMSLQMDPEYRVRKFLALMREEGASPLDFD

Key:
[1] = molecular target: T1, GST-N-SERT (N-terminal domain of the rat serotonin transporter, residues 1 to 85, fused to glutathione S-transferase) (rat) (UniProt P31652); assay: pull-down; GST, GST-N-SERT or GST-C-SERT on glutathione agarose incubated with mouse brain extract at 4°C for 3 h; washed with TBS; Western blot; only the target purified
T1 sequence: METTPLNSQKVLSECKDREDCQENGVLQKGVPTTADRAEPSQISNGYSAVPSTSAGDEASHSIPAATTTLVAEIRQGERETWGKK

[2] = molecular target: serotonin transporter (SERT), endogenous in mouse brain (mouse (endogenous in mouse brain)) (UniProt Q60857); assay: co-IP; mouse brains cross-linked in vivo by time-controlled transcardiac perfusion (tcTPC, 4% formaldehyde, 6 min); extract with 1% NP-40, 1% deoxycholate; immunoprecipitation with anti-SERT antibody and protein G-Sepharose; blot probed for NSF
[3] = molecular target: serotonin transporter (SERT), endogenous in mouse brain (mouse (endogenous in mouse brain)) (UniProt Q60857); assay: condition: only without tcTPC cross-linking (detergent extract); co-IP; non-tcTPC-treated (not cross-linked) mouse brains; extract with 1% NP-40, 1% deoxycholate; immunoprecipitation with anti-SERT antibody and protein G-Sepharose; blot probed for NSF

N-ethylmaleimide-sensitive factor (Vesicle-fusing ATPase) (from UniProt P46460 1-744)
binding [1]: binds | binding [2]: binds | binding [3]: no binding
